B1: GCDH (protein, UniProt Q92947 45-438, looked up)
Glutaryl-CoA dehydrogenase, …: RPEFDWQDPLVLEEQLTTDEILIRDTFRTYCQERLMPRILLANRNEVFHREIISEMGELGVLGPTIKGYGCAGVSSVAYGLLARELERVDSGYRSAMSVQSSLVMHPIYAYGSEEQRQKYLPQLAKGELLGCFGLTEPNSGSDPSSMETRAHYNSSNKSYTLNGTKTWITNSPMADLFVVWARCEDGCIRGFLLEKGMRGLSAPRIQGKFSLRASATGMIIMDGVEVPEENVLPGASSLGGPFGCLNNARYGIAWGVLGASEFCLHTARQYALDRMQFGVPLARNQLIQKKLADMLTEITLGLHACLQLGRLKDQDKAAPEMVSLLKRNNCGKALDIARQARDMLGGNGISDEYHVIRHAMNLEAVNTYEGTHDIHALILGRAITGIQAFTASK
B2: MTHFD2 (protein, UniProt P13995 36-350, looked up)
Bifunctional …: EAVVISGRKLAQQIKQEVRQEVEEWVASGNKRPHLSVILVGENPASHSYVLNKTRAAAVVGINSETIMKPASISEEELLNLINKLNNDDNVDGLLVQLPLPEHIDERRICNAVSPDKDVDGFHVINVGRMCLDQYSMLPATPWGVWEIIKRTGIPTLGKNVVVAGRSKNVGMPIAMLLHTDGAHERPGGDATVTISHRYTPKEQLKKHTILADIVISAAGIPNLITADMIKEGAAVIDVGINRVHDPVTAKPKLVGDVDFEGVRQKAGYITPVPGGVGPMTVAMLMKNTIIAAKKVLRLEEREVLKSKELGVATN
B3: HNRNPL (protein, UniProt P14866 1-589, looked up)
Heterogeneous nuclear …: MSRRLLPRAEKRRRRLEQRQQPDEQRRRSGAMVKMAAAGGGGGGGRYYGGGSEGGRAPKRLKTDNAGDQHGGGGGGGGGAGAAGGGGGGENYDDPHKTPASPVVHIRGLIDGVVEADLVEALQEFGPISYVVVMPKKRQALVEFEDVLGACNAVNYAADNQIYIAGHPAFVNYSTSQKISRPGDSDDSRSVNSVLLFTILNPIYSITTDVLYTICNPCGPVQRIVIFRKNGVQAMVEFDSVQSAQRAKASLNGADIYSGCCTLKIEYAKPTRLNVFKNDQDTWDYTNPNLSGQGDPGSNPNKRQRQPPLLGDHPAEYGGPHGGYHSHYHDEGYGPPPPHYEGRRMGPPVGGHRRGPSRYGPQYGHPPPPPPPPEYGPHADSPVLMVYGLDQSKMNCDRVFNVFCLYGNVEKVKFMKSKPGAAMVEMADGYAVDRAITHLNNNFMFGQKLNVCVSKQPAIMPGQSYGLEDGSCSYKDFSESRNNRFSTPEQAAKNRIQHPSNVLHFFNAPLEVTEENFFEICDELGVKRPSSVKVFSGKSERSSSGLLEWESKSDALETLGFLNHYQMKNPNGPYPYTLKLCFSTAQHAS
B4: NIPSNAP1 (protein, UniProt Q9BPW8 36-284, looked up)
Protein NipSnap homolog 1: SKDNEGSWFRSLFVHKVDPRKDAHSTLLSKKETSNLYKIQFHNVKPEYLDAYNSLTEAVLPKLHLDEDYPCSLVGNWNTWYGEQDQAVHLWRFSGGYPALMDCMNKLKNNKEYLEFRRERSQMLLSRRNQLLLEFSFWNEPQPRMGPNIYELRTYKLKPGTMIEWGNNWARAIKYRQENQEAVGGFFSQIGELYVVHHLWAYKDLQSREETRNAAWRKRGWDENVYYTVPLVRHMESRIMIPLKISPLQ
B5: SF3B1 (protein)
chain: MAKIAKTHEDIEAQIREIQGKKAALDEAQGVGLDSTGYYDQEIYGGSDSRFAGYVTSIAATELEDDDDDYSSSTSLLGQKKPGYHAPVALLNDIPQSTEQYDPFAEHRPPKIADREDEYKKHRRTMIISPERLDPFADGGKTPDPKMNARTYMDVMREQHLTKEEREIRQQLAEKAKAGELKVVNGAAASQPPSKRKRRWDQTADQTPGATPKKLSSWDQAETPGHTPSLRWDETPGRAKGSETPGATPGSKIWDPTPSHTPAGAATPGRGDTPGHATPGHGGATSSARKNRWDETPKTERDTPGHGSGWAETPRTDRGGDSIGETPTPGASKRKSRWDETPASQMGGSTPVLTPGKTPIGTPAMNMATPTPGHIMSMTPEQLQAWRWEREIDERNRPLSDEELDAMFPEGYKVLPPPAGYVPIRTPARKLTATPTPLGGMTGFHMQTEDRTMKSVNDQPSGNLPFLKPDDIQYFDKLLVDVDESTLSPEEQKERKIMKLLLKIKNGTPPMRKAALRQITDKAREFGAGPLFNQILPLLMSPTLEDQERHLLVKVIDRILYKLDDLVRPYVHKILVVIEPLLIDEDYYARVEGREIISNLAKAAGLATMISTMRPDIDNMDEYVRNTTARAFAVVASALGIPSLLPFLKAVCKSKKSWQARHTGIKIVQQIAILMGCAILPHLRSLVEIIEHGLVDEQQKVRTISALAIAALAEAATPYGIESFDSVLKPLWKGIRQHRGKGLAAFLKAIGYLIPLMDAEYANYYTREVMLILIREFQSPDEEMKKIVLKVVKQCCGTDGVEANYIKTEILPPFFKHFWQHRMALDRRNYRQLVDTTVELANKVGAAEIISRIVDDLKDEAEQYRKMVMETIEKIMGNLGAADIDHKLEEQLIDGILYAFQEQTTEDSVMLNGFGTVVNALGKRVKPYLPQICGTVLWRLNNKSAKVRQQAADLISRTAVVMKTCQEEKLMGHLGVVLYEYLGEEYPEVLGSILGALKAIVNVIGMHKMTPPIKDLLPRLTPILKNRHEKVQENCIDLVGRIADRGAEYVSAREWMRICFELLELLKAHKKAIRRATVNTFGYIAKAIGPHDVLATLLNNLKVQERQNRVCTTVAIAIVAETCSPFTVLPALMNEYRVPELNVQNGVLKSLSFLFEYIGEMGKDYIYAVTPLLEDALMDRDLVHRQTASAVVQHMSLGVYGFGCEDSLNHLLNYVWPNVFETSPHVIQAVMGALEGLRVAIGPCRMLQYCLQGLFHPARKVRDVYWKIYNSIYIGSQDALIAHYPRIYNDDKNTYIRYELDYIL
B6: RCC1 (protein, UniProt P18754 2-421, looked up)
Regulator of chromosome …: SPKRIAKRRSPPADAIPKSKKVKVSHRSHSTEPGLVLTLGQGDVGQLGLGENVMERKKPALVSIPEDVVQAEAGGMHTVCLSKSGQVYSFGCNDEGALGRDTSVEGSEMVPGKVELQEKVVQVSAGDSHTAALTDDGRVFLWGSFRDNNGVIGLLEPMKKSMVPVQVQLDVPVVKVASGNDHLVMLTADGDLYTLGCGEQGQLGRVPELFANRGGRQGLERLLVPKCVMLKSRGSRGHVRFQDAFCGAYFTFAISHEGHVYGFGLSNYHQLGTPGTESCFIPQNLTSFKNSTKSWVGFSGGQHHTVCMDSEGKAYSLGRAEYGRLGLGEGAEEKSIPTLISRLPAVSSVACGASVGYAVTKDGRVFAWGMGTNYQLGTGQDEDAWSPVEMMGKQLENRVVLSVSSGGQHTVLLVKDKEQS
B7: SLC1A5 (protein, UniProt Q15758 1-541, looked up)
Neutral amino acid …: MVADPPRDSKGLAAAEPTANGGLALASIEDQGAAAGGYCGSRDQVRRCLRANLLVLLTVVAVVAGVALGLGVSGAGGALALGPERLSAFVFPGELLLRLLRMIILPLVVCSLIGGAASLDPGALGRLGAWALLFFLVTTLLASALGVGLALALQPGAASAAINASVGAAGSAENAPSKEVLDSFLDLARNIFPSNLVSAAFRSYSTTYEERNITGTRVKVPVGQEVEGMNILGLVVFAIVFGVALRKLGPEGELLIRFFNSFNEATMVLVSWIMWYAPVGIMFLVAGKIVEMEDVGLLFARLGKYILCCLLGHAIHGLLVLPLIYFLFTRKNPYRFLWGIVTPLATAFGTSSSSATLPLMMKCVEENNGVAKHISRFILPIGATVNMDGAALFQCVAAVFIAQLSQQSLDFVKIITILVTATASSVGAAGIPAGGVLTLAIILEAVNLPVDHISLILAVDWLVDRSCTVLNVEGDALGAGLLQNYVDRTESRSTEPELIQVKSELPLDPLPVPTEEGNPLLKHYRGPAGDATVASEKESVM
B8: GANAB (protein, UniProt Q14697 29-944, looked up)
Neutral alpha-glucosidase AB: ITLAVDRSNFKTCEESSFCKRQRSIRPGLSPYRALLDSLQLGPDSLTVHLIHEVTKVLLVLELQGLQKNMTRFRIDELEPRRPRYRVPDVLVADPPIARLSVSGRDENSVELTMAEGPYKIILTARPFRLDLLEDRSLLLSVNARGLLEFEHQRAPRVSQGSKDPAEGDGAQPEETPRDGDKPEETQGKAEKDEPGAWEETFKTHSDSKPYGPMSVGLDFSLPGMEHVYGIPEHADNLRLKVTEGGEPYRLYNLDVFQYELYNPMALYGSVPVLLAHNPHRDLGIFWLNAAETWVDISSNTAGKTLFGKMMDYLQGSGETPQTDVRWMSETGIIDVFLLLGPSISDVFRQYASLTGTQALPPLFSLGYHQSRWNYRDEADVLEVDQGFDDHNLPCDVIWLDIEHADGKRYFTWDPSRFPQPRTMLERLASKRRKLVAIVDPHIKVDSGYRVHEELRNLGLYVKTRDGSDYEGWCWPGSAGYPDFTNPTMRAWWANMFSYDNYEGSAPNLFVWNDMNEPSVFNGPEVTMLKDAQHYGGWEHRDVHNIYGLYVHMATADGLRQRSGGMERPFVLARAFFAGSQRFGAVWTGDNTAEWDHLKISIPMCLSLGLVGLSFCGADVGGFFKNPEPELLVRWYQMGAYQPFFRAHAHLDTGRREPWLLPSQHNDIIRDALGQRYSLLPFWYTLLYQAHREGIPVMRPLWVQYPQDVTTFNIDDQYLLGDALLVHPVSDSGAHGVQVYLPGQGEVWYDIQSYQKHHGPQTLYLPVTLSSIPVFQRGGTIVPRWMRVRRSSECMKDDPITLFVALSPQGTAQGELFLDDGHTFNYQTRQEFLLRRFSFSGNTLVSSSADPEGHFETPIWIERVVIIGAGKPAAVVLQTKGSPESRLSFQHDPETSVLVLRKPGINVASDWSIHLR
B9: MOGS (protein, UniProt Q13724 1-837, looked up)
Mannosyl-oligosaccharide …: MARGERRRRAVPAEGVRTAERAARGGPGRRDGRGGGPRSTAGGVALAVVVLSLALGMSGRWVLAWYRARRAVTLHSAPPVLPADSSSPAVAPDLFWGTYRPHVYFGMKTRSPKPLLTGLMWAQQGTTPGTPKLRHTCEQGDGVGPYGWEFHDGLSFGRQHIQDGALRLTTEFVKRPGGQHGGDWSWRVTVEPQDSGTSALPLVSLFFYVVTDGKEVLLPEVGAKGQLKFISGHTSELGDFRFTLLPPTSPGDTAPKYGSYNVFWTSNPGLPLLTEMVKSRLNSWFQHRPPGAPPERYLGLPGSLKWEDRGPSGQGQGQFLIQQVTLKIPISIEFVFESGSAQAGGNQALPRLAGSLLTQALESHAEGFRERFEKTFQLKEKGLSSGEQVLGQAALSGLLGGIGYFYGQGLVLPDIGVEGSEQKVDPALFPPVPLFTAVPSRSFFPRGFLWDEGFHQLVVQRWDPSLTREALGHWLGLLNADGWIGREQILGDEARARVPPEFLVQRAVHANPPTLLLPVAHMLEVGDPDDLAFLRKALPRLHAWFSWLHQSQAGPLPLSYRWRGRDPALPTLLNPKTLPSGLDDYPRASHPSVTERHLDLRCWVALGARVLTRLAEHLGEAEVAAELGPLAASLEAAESLDELHWAPELGVFADFGNHTKAVQLKPRPPQGLVRVVGRPQPQLQYVDALGYVSLFPLLLRLLDPTSSRLGPLLDILADSRHLWSPFGLRSLAASSSFYGQRNSEHDPPYWRGAVWLNVNYLALGALHHYGHLEGPHQARAAKLHGELRANVVGNVWRQYQATGFLWEQYSDRDGRGMGCRPFHGWTSLVLLAMAEDY

Each molecule was assayed on mSWI/SNF complexes (assay: mSWI/SNF complex purification with HA-tagged baits and mass spectrometry (peptide counts)). Conditions: 293_HA-BRD7: HA-BRD7 bait purification, total peptide count per co-purified protein.
Parameters: species or system human

Total, 5:
B1
B2
B3
B4
B5
B6
B7
B8
B9

Same assay, conditions: 293_HA-BRD7: HA-BRD7 bait purification, unique peptide count per co-purified protein

Unique, 5:
B1
B2
B3
B4
B5
B6
B7
B8
B9

Reference: patent US12729225B2, “Non-canonical SWI/SNF complex and uses thereof” (Dana-Farber Cancer Institute, Inc., priority 2018, dated 2026)
